The target of the assay is GFP-tagged wildtype human LRRK2 (human) (UniProt Q5S007). In words: co-IP; HEK293T cells co-transfected with GFP-tagged LRRK2 constructs and 3xFlag-tagged RAB constructs; lysis in 50 mM Tris-HCl pH 7.6, 150 mM NaCl, 2 mM MgCl2, 1% Triton-X100, 1 mM DTT; immunoprecipitation with polyclonal anti-GFP antibody and protein G Sepharose at 4°C; blot for GFP and flag; cells treated with 100 nM MLi2 for 60 min where indicated.

By UniProt entry, the sequences of proteins in these tests, tags left out.
UniProt Q5S007: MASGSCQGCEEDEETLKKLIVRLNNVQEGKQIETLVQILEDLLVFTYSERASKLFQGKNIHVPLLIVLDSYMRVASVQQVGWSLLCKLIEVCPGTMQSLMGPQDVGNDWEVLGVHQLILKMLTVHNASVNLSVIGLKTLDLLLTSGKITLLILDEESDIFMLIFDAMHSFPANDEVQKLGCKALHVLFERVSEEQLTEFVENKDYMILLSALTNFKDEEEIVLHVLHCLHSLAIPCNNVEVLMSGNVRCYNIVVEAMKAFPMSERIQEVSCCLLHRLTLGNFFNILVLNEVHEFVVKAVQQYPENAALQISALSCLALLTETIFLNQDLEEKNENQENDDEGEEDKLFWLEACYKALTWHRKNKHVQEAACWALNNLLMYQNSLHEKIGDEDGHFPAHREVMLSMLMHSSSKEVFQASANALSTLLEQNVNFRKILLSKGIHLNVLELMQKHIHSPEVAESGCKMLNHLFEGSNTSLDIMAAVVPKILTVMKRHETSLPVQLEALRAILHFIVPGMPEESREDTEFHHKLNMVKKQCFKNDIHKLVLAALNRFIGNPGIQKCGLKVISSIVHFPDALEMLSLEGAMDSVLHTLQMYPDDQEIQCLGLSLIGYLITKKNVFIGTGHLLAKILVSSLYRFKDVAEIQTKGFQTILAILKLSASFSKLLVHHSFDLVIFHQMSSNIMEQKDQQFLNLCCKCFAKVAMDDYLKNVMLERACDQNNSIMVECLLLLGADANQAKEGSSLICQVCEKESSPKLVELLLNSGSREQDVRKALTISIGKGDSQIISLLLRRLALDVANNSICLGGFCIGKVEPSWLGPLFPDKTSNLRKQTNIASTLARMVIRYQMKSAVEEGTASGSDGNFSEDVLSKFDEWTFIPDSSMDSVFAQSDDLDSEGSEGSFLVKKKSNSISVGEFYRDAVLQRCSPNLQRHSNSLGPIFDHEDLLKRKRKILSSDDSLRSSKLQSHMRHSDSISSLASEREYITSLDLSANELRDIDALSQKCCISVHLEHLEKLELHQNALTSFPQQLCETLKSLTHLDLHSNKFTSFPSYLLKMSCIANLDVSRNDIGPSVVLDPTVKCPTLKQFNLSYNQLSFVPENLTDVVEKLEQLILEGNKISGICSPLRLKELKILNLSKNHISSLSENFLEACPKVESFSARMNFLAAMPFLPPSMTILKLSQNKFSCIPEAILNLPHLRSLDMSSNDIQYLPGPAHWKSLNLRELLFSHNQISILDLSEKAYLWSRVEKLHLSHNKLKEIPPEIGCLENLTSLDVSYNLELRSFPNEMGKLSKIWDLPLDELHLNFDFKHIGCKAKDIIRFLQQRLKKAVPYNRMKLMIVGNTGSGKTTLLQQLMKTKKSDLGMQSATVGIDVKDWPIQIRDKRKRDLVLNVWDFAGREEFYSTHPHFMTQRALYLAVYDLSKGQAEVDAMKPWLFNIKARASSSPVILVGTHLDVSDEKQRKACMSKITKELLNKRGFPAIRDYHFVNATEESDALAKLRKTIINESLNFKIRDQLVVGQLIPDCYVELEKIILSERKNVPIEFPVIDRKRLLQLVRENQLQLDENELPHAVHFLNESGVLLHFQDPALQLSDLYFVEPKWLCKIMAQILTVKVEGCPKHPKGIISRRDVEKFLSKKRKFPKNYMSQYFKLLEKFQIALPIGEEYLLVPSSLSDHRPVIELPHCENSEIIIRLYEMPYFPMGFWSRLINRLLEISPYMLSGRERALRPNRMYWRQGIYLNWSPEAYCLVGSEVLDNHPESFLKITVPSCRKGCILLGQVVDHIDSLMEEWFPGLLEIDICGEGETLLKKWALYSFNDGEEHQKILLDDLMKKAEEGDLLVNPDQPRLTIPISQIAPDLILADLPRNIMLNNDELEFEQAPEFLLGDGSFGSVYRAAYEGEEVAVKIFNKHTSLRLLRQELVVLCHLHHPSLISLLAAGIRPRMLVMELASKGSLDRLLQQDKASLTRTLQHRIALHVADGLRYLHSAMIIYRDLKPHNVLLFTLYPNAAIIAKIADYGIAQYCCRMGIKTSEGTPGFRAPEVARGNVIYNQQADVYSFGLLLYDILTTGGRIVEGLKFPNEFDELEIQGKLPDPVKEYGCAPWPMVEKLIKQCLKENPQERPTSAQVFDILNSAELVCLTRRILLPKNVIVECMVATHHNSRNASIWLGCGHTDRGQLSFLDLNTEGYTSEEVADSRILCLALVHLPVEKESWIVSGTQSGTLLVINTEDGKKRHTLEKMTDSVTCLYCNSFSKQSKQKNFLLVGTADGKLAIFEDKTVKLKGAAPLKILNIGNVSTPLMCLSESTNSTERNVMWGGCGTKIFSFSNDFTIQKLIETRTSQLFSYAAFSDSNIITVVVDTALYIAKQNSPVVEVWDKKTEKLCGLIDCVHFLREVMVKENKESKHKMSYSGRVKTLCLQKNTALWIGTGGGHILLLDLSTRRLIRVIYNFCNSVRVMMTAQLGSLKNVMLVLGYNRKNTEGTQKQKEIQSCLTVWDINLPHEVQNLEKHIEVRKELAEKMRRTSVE
UniProt P51149: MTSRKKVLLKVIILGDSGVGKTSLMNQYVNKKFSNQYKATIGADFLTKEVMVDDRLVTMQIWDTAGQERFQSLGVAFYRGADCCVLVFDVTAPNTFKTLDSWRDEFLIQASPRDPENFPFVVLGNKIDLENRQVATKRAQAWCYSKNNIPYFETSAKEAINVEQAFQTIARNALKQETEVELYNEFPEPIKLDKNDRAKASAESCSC

No constants are given. Whether binding was seen depends on the method and setting. Binding seen in cells or lysates may run through a third protein. Some entries that bind do so weakly or less than the wild type. Tags and fused reporters may be left off the sequences shown.

As for “3xFlag-tagged RAB7A (from UniProt P51149 1-207)”, the binding result was “no binding”.

B1: 3xFlag-tagged RAB7L1 (protein, UniProt O14966 1-203)
chain: MGSRDHLFKVLVVGDAAVGKTSLVQRYSQDSFSKHYKSTVGVDFALKVLQWSDYEIVRLQLWDIAGQERFTSMTRLYYRDASACVIMFDVTNATTFSNSQRWKQDLDSKLTLPNGEPVPCLLLANKCDLSPWAVSRDQIDRFSKENGFTGWTETSVKENKNINEAMRVLIEKMMRNSTEDIMSLSTQGDYINLQTKSSSWSCC
With B1, the binding entry is “binds”.

For the origin of these results see paper PMC6243087.
